# For at least one compound, name, drawing or mass did not settle the structure.
# System: gastroesophogeal cancer, lung cancer, breast cancer, colon cancer, paraganglioma and medullary thyroid cancer
# Test: Human Ph I clinical trial, tumor response: other advanced solid tumors
# Format: in vivo
# Details: patients with advanced solid tumors; dose escalation schedule, on-off cycle
smiles,measurement,value
"Cc1csc(-c2nnc(Nc3ccc(Oc4ncccc4-c4ccnc(N)n4)cc3)c3ccccc23)c1 [AMG 900, N-(4-((3-(2-amino-4-pyrimidinyl)-2-pyridinyl)oxy)phenyl)-4-(4-methyl-2-thienyl)-1-phthalazinamine]",tumor growth,stabilization in growth of the tumors
